# Laboratory results reported in publication PMC7819943, “Rice protein-binding microarrays: a tool to detect cis-acting elements near promoter regions in rice”.
# Chains of the proteins cited; added tags and fusions are not shown.
# UniProt Q0JBA9, entry or part of it: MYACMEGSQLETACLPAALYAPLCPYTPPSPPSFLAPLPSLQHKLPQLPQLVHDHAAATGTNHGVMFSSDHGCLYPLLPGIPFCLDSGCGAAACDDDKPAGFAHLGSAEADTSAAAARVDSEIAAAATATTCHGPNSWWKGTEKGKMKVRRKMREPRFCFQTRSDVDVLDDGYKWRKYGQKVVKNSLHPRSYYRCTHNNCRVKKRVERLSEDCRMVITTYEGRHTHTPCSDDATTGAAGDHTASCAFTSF
# This is one part of the list.
# Target: OsWRKY34 (Oryza sativa, UniProt Q0JBA9 1-250)
# Test: protein-binding microarray (RPBM); PBS, 2% BSA, 51.3 ng/ul salmon testes DNA, 50 uM zinc acetate, 200 nM TF, 25 C, 1 h; high values mean tight binding
# Conditions: protein: recombinant; tags: N-terminal polyhistidine and DsRed monomer fusion (pET32a); label: CyDye5-dUTP incorporated in the synthesized complementary strand; 3' TTTTT single-stranded linker to array surface; dsDNA, one strand shown
# In short: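 Per-feature fluorescence intensity (arbitrary units), read on an Axon 4000B scanner, is the binding signal. Transcription factors carrying an N-terminal polyhistidine tag and DsRed fusion were expressed in E. coli BL21-CodonPlus and purified on Ni–NTA. A custom Agilent array, made double-stranded by primer extension with Cy5-dUTP and blocked with 2% BSA, was incubated with 200 nM protein in PBS, 2% BSA, salmon testes DNA and 50 µM zinc acetate at 25 °C for 1 h and then washed.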
row,Sequence,binding signal
1,ACAACGGCGACCACGACACGAAATTTCCACGCGCGCTTGCCGGAGTCACCTAGTGCAG,8930 fluorescence intensity (a.u.)
2,ACAATCTCGACATCTAGCAGCATCCAGTCTAAACACTAAACGGAGTCACCTAGTGCAG,8080 fluorescence intensity (a.u.)
3,CGCACGCGTGCACGGCTCTCTGCGACCCGCGAACCACCAGCGGAGTCACCTAGTGCAG,8520 fluorescence intensity (a.u.)
4,GCAATCTGGGCCGCGCCCATTCCCCTACGGCCCACGAATCCGGAGTCACCTAGTGCAG,8170 fluorescence intensity (a.u.)
5,CTTATTTAGTTGGGGAAAATTTTTGGGTTTGTTTGTCACACGGAGTCACCTAGTGCAG,11600 fluorescence intensity (a.u.)
6,ATTATATCATTTTCACAATATTTGAACCAAAACTCATCAACGGAGTCACCTAGTGCAG,8830 fluorescence intensity (a.u.)
7,CCGACCACGACCAGAGCTCGCCTCGCCCTCGCCGATTACCCGGAGTCACCTAGTGCAG,11300 fluorescence intensity (a.u.)
8,AGTGTTTGACTTTCTTACTGACCTTACCTGATCTTGAAGCCGGAGTCACCTAGTGCAG,16200 fluorescence intensity (a.u.)
9,GTGGTGTGTGAATATAAATTTTCCCTTCCGCTCACAGAAGCGGAGTCACCTAGTGCAG,8240 fluorescence intensity (a.u.)
10,CACCGCCACCACCCGCACCGCCTCCGCCGCGCGCCCCGACCGGAGTCACCTAGTGCAG,9130 fluorescence intensity (a.u.)
11,GGGTCTCACCTCGTCACCGGAGGTTTTTCCAGTGTACCATCGGAGTCACCTAGTGCAG,8192 fluorescence intensity (a.u.)
12,TCCTCGTCGAGATCTCTCTATCTCTCTCTCTGCTCTGCTCCGGAGTCACCTAGTGCAG,9690 fluorescence intensity (a.u.)
13,ACCGTTGATTTAGAAAGGGGTTGAGGGGAGGGTAGTAGTACGGAGTCACCTAGTGCAG,11600 fluorescence intensity (a.u.)
14,TTCTTTTTCGTTTTCTTCTCATTCTTCTTTTTTTTCCTTTCGGAGTCACCTAGTGCAG,14300 fluorescence intensity (a.u.)
15,TCTTTTTATTTTTTTCTTCCATTGTTCTTGTCCTTCTAATCGGAGTCACCTAGTGCAG,8230 fluorescence intensity (a.u.)
16,CCTTTTCCTGGTGGAATTTTCTTCTCATACTATTTTCTTGCGGAGTCACCTAGTGCAG,11300 fluorescence intensity (a.u.)
17,GACTCTTGCGATTCCCTCTGTTGAACTTGTTCGTTCTCCTCGGAGTCACCTAGTGCAG,10600 fluorescence intensity (a.u.)
18,AATTTATTCTTTTTCCCTTTTTTTTCCTCTGTTTTTCTCACGGAGTCACCTAGTGCAG,8730 fluorescence intensity (a.u.)
19,CCCACACCTCTGTTGCTACCTTTTCGTCGTCGTCGTCGCCCGGAGTCACCTAGTGCAG,9700 fluorescence intensity (a.u.)
20,CCTATGCACGCGCGCTCCCGCGCCTCCGTGCCGTCCCCACCGGAGTCACCTAGTGCAG,8390 fluorescence intensity (a.u.)
21,ATTGCAATATCTGCAATCCCGTGTACCTTTTGCTGATTTTCGGAGTCACCTAGTGCAG,11300 fluorescence intensity (a.u.)

# A second format for some results above:
row	Sequence	binding signal
9	GTGGTGTGTGAATATAAATTTTCCCTTCCGCTCACAGAAGCGGAGTCACCTAGTGCAG	8240 fluorescence intensity (a.u.)
10	CACCGCCACCACCCGCACCGCCTCCGCCGCGCGCCCCGACCGGAGTCACCTAGTGCAG	9130 fluorescence intensity (a.u.)
11	GGGTCTCACCTCGTCACCGGAGGTTTTTCCAGTGTACCATCGGAGTCACCTAGTGCAG	8192 fluorescence intensity (a.u.)
12	TCCTCGTCGAGATCTCTCTATCTCTCTCTCTGCTCTGCTCCGGAGTCACCTAGTGCAG	9690 fluorescence intensity (a.u.)
13	ACCGTTGATTTAGAAAGGGGTTGAGGGGAGGGTAGTAGTACGGAGTCACCTAGTGCAG	11600 fluorescence intensity (a.u.)
14	TTCTTTTTCGTTTTCTTCTCATTCTTCTTTTTTTTCCTTTCGGAGTCACCTAGTGCAG	14300 fluorescence intensity (a.u.)
15	TCTTTTTATTTTTTTCTTCCATTGTTCTTGTCCTTCTAATCGGAGTCACCTAGTGCAG	8230 fluorescence intensity (a.u.)
16	CCTTTTCCTGGTGGAATTTTCTTCTCATACTATTTTCTTGCGGAGTCACCTAGTGCAG	11300 fluorescence intensity (a.u.)
17	GACTCTTGCGATTCCCTCTGTTGAACTTGTTCGTTCTCCTCGGAGTCACCTAGTGCAG	10600 fluorescence intensity (a.u.)
18	AATTTATTCTTTTTCCCTTTTTTTTCCTCTGTTTTTCTCACGGAGTCACCTAGTGCAG	8730 fluorescence intensity (a.u.)
19	CCCACACCTCTGTTGCTACCTTTTCGTCGTCGTCGTCGCCCGGAGTCACCTAGTGCAG	9700 fluorescence intensity (a.u.)

# Following part:

row,Sequence,binding signal
1,AGACCCCAACTCCTAGTAGTTGTATTTGTCGGCTTGCATCCGGAGTCACCTAGTGCAG,8590 fluorescence intensity (a.u.)
2,ATTCCTGTTCTACTCTGAGCCAACCGCCGCAGCGCATGCGCGGAGTCACCTAGTGCAG,8540 fluorescence intensity (a.u.)
3,GTTTGGGGTCGAGATATCCGGTTTTGTAATCCAGAGAAACCGGAGTCACCTAGTGCAG,8840 fluorescence intensity (a.u.)
4,ACCACCCTCCTTGTTACAGCTGTGCCGCCTCTTGCTTCCTCGGAGTCACCTAGTGCAG,11600 fluorescence intensity (a.u.)
5,ATACCTAATCAACGTGTCATTTTGTGCCCCTATCACGGAACGGAGTCACCTAGTGCAG,8110 fluorescence intensity (a.u.)
6,ACTTGGTTTATTGTATCATCCCGGTCCAAAATCTAGTTTGCGGAGTCACCTAGTGCAG,8370 fluorescence intensity (a.u.)
7,CATTCTTTTTATGTGTTTATGCAGTAGTGCATGGCTTCACCGGAGTCACCTAGTGCAG,8090 fluorescence intensity (a.u.)
8,GAGGGTATTGGGGTACGCTGGTATGAGGATCTACGTAATACGGAGTCACCTAGTGCAG,8380 fluorescence intensity (a.u.)
9,GCTCACTCTCACTCTCACTCTTGCATTGCATTGCAATATTCGGAGTCACCTAGTGCAG,12600 fluorescence intensity (a.u.)
10,GGGTGTTAGAGCAAAATGTTTTGACTTGCATAGGTGTGTGCGGAGTCACCTAGTGCAG,8210 fluorescence intensity (a.u.)
11,CGGGCAATGCGGATCACGTCGATCACGTTCTCTTGTATTTCGGAGTCACCTAGTGCAG,8120 fluorescence intensity (a.u.)
12,ACTTTTACTCTATTTTTATTTTGCTGACTAGGATATCACGCGGAGTCACCTAGTGCAG,9320 fluorescence intensity (a.u.)
13,CTATATGGACTCTATACTCTATTTCTAATATTCCTTATTTCGGAGTCACCTAGTGCAG,8780 fluorescence intensity (a.u.)
14,ATAATCATCCTGCATTTCTTCAGTTGTCGCCATACTTCTGCGGAGTCACCTAGTGCAG,8980 fluorescence intensity (a.u.)
15,ATTTTTCATGCCTACATTTCTTGTTGTTTACCGTCACACTCGGAGTCACCTAGTGCAG,11600 fluorescence intensity (a.u.)
16,TCACCAACGCCAACGCCAAGGCCCATTTCCCACCAACCCACGGAGTCACCTAGTGCAG,8360 fluorescence intensity (a.u.)
17,CAGGGCGCCGTTGTTTGTCCCGCTGCTTCCACCGCATCCTCGGAGTCACCTAGTGCAG,8200 fluorescence intensity (a.u.)
18,ATGTGCCTGACCCCATTCATCTTCTCACATGAATATCACCCGGAGTCACCTAGTGCAG,8780 fluorescence intensity (a.u.)
19,GGCCCTTTTCAGTCCGTGCCGTGTTTTTCTTCTTCTTAATCGGAGTCACCTAGTGCAG,13200 fluorescence intensity (a.u.)
20,TATTTCCATTCAACCGTTTAAATTCATGTTTGTTTTCCATCGGAGTCACCTAGTGCAG,9960 fluorescence intensity (a.u.)
21,TTTCGACTCTGCTTCTTTTATTATTACTTTTTATTTTATTCGGAGTCACCTAGTGCAG,12400 fluorescence intensity (a.u.)

row,Sequence,binding signal
1,AAGGACGATTTATCTTTTGCTTCACCCGTCTCTACTCTCTCGGAGTCACCTAGTGCAG,9160 fluorescence intensity (a.u.)
2,ACATTGTTCTCTCTTTTACGGCCTTTTTTTTTTCTGAATTCGGAGTCACCTAGTGCAG,17900 fluorescence intensity (a.u.)
3,ACTCTACTTCTAATATTCCTTATTTTTAATTCTGAATTTCCGGAGTCACCTAGTGCAG,8950 fluorescence intensity (a.u.)
4,GTAAGGGTTAATTTGGGAGGTAGAGTAAAAGATTGTTCGACGGAGTCACCTAGTGCAG,9330 fluorescence intensity (a.u.)
5,GTAGGCTCGTCGTCTAGCTCTGGTCAACTCAAGTCGTCGCCGGAGTCACCTAGTGCAG,9500 fluorescence intensity (a.u.)
6,AGAGTGGTATATGTATGTTTTCAATTTTTTTTGAGATTTTCGGAGTCACCTAGTGCAG,10700 fluorescence intensity (a.u.)
7,TCCTCGCCGACGGCGTGCCGGCTCACGTTGCACCTCACCGCGGAGTCACCTAGTGCAG,8210 fluorescence intensity (a.u.)
8,GGACTATGTTTTGATGAATTGTGGTCGGATATGTGTTGACCGGAGTCACCTAGTGCAG,10300 fluorescence intensity (a.u.)
9,CTTCTTTTGTAGACAAACCAGTCACCTTGATTATTTTTTTCGGAGTCACCTAGTGCAG,9220 fluorescence intensity (a.u.)
10,CAACAACAACAACCCCGTCTCCACCACCACCACCACCACTCGGAGTCACCTAGTGCAG,8080 fluorescence intensity (a.u.)
11,CACCACCTTTGTTTGCTGCTCTCCATTTTTTTTCTTCGTTCGGAGTCACCTAGTGCAG,10200 fluorescence intensity (a.u.)
12,TTTTGGTCTTGTGATAGGTTATTTGCTTACGGTTATCAACCGGAGTCACCTAGTGCAG,8870 fluorescence intensity (a.u.)
13,TCTTCTCTTCAACCACTGGTGTGTGGTGTGTGTGGTTCTCCGGAGTCACCTAGTGCAG,10100 fluorescence intensity (a.u.)
14,TCTTTCTTTTCCGATCACACGGTCATCACTCGGTCAGGTTCGGAGTCACCTAGTGCAG,9280 fluorescence intensity (a.u.)
15,CTGATTAATTTACAGAAATTTCGCATCGTTTTTGATTTGTCGGAGTCACCTAGTGCAG,8830 fluorescence intensity (a.u.)
16,TCGTCTCGCAATTTATATGCAAATTGTGCAATTAGTTTTTCGGAGTCACCTAGTGCAG,8470 fluorescence intensity (a.u.)
17,TAACGGGGAACATCAATATATATACCTTTTCAGCTCTGTTCGGAGTCACCTAGTGCAG,9520 fluorescence intensity (a.u.)
18,CATCCCTTCCAATCCAGGCTTCCACTTCCATCGCATCGATCGGAGTCACCTAGTGCAG,8540 fluorescence intensity (a.u.)
19,TGGGTATCTATAGCTCTCTCATGCATTGCCTGTTTTTCTCCGGAGTCACCTAGTGCAG,9140 fluorescence intensity (a.u.)
20,GCGATTTGATTTGATTAAACTTAATTAATTATTTTTTGTTCGGAGTCACCTAGTGCAG,8080 fluorescence intensity (a.u.)
21,ATCATCATTCATTTCATCAACTCCTCTTTGTGTGTAGACTCGGAGTCACCTAGTGCAG,9130 fluorescence intensity (a.u.)

row,Sequence,binding signal
1,ACCGTTACGTTGCCCACTGCCACCGCCCGCGGCCCCAATCCGGAGTCACCTAGTGCAG,11400 fluorescence intensity (a.u.)
2,CTCATGTTTGACCATTCGTCTTATTTAAAAACTTTTGTGACGGAGTCACCTAGTGCAG,8180 fluorescence intensity (a.u.)
3,GGTTTTAATATTGAGGGTTAGGGTCGTTCTATCCGGGTTTCGGAGTCACCTAGTGCAG,9580 fluorescence intensity (a.u.)
4,GGCACACCACCCAGTCGGCCAACCAATCCTCCGACCGGCTCGGAGTCACCTAGTGCAG,9810 fluorescence intensity (a.u.)
5,CTGTGTGGGTTGGTAAAGACTGAGGCGTATTTATAACTGGCGGAGTCACCTAGTGCAG,9400 fluorescence intensity (a.u.)
6,GAGGTTAGACAAGTTTGACCATGTTAGGTGAGTGTTTGGTCGGAGTCACCTAGTGCAG,8400 fluorescence intensity (a.u.)
7,TCGCATCCACTCCACATACTACCACTCAAAAACTCTCTCTCGGAGTCACCTAGTGCAG,11000 fluorescence intensity (a.u.)
8,CTTTGATCGTCCGTCTTATTTATTTTTTTTTGTAATTAGTCGGAGTCACCTAGTGCAG,8430 fluorescence intensity (a.u.)
9,CGGTCTGACCGCCCACATACCTGCGGTCAGACCGGCCCTACGGAGTCACCTAGTGCAG,9440 fluorescence intensity (a.u.)
10,GCAGCGCCGCCGCCTCATCCGCGTCGACCTCCGCCTCCGCCGGAGTCACCTAGTGCAG,8750 fluorescence intensity (a.u.)
11,GTGCGCGCCATCATCACTATTCATCGGTTCTACATCTAGGCGGAGTCACCTAGTGCAG,9390 fluorescence intensity (a.u.)
12,CCCGCACGCCATGCCATTCCGCCCCACGGTCTCGCCGCCGCGGAGTCACCTAGTGCAG,9590 fluorescence intensity (a.u.)
13,CGGTTTTCTTCCCTCGGCCCATCTCTCTCTCTCGGCCCGGCGGAGTCACCTAGTGCAG,8420 fluorescence intensity (a.u.)
14,TGTTGTTGTAGATTTGGGATTTGGTGATATGGATTTGGAACGGAGTCACCTAGTGCAG,8590 fluorescence intensity (a.u.)
15,TATTTTATCTCACTGGCTATTTCCTATGATTATTTATTTCCGGAGTCACCTAGTGCAG,11400 fluorescence intensity (a.u.)
16,CTCATTATTTTAGCTTTTTTTTTTACAAAAGTACTTGTTCCGGAGTCACCTAGTGCAG,8300 fluorescence intensity (a.u.)
17,CTCTCCGGCGAGCTTTTTCACTCACTCACTGTGTTTCTCTCGGAGTCACCTAGTGCAG,9060 fluorescence intensity (a.u.)
18,GACTTTTCCAATGGCATTTCTGTTTCCTGCTCCCTAGTCGCGGAGTCACCTAGTGCAG,9000 fluorescence intensity (a.u.)
19,GTGAGGCTTTTGGTTTTATGTTGTGATTTTGAGTGCCATTCGGAGTCACCTAGTGCAG,9370 fluorescence intensity (a.u.)
20,TCCACCTCCTAGCGAAATGCATGGTTGGCCAAACAACACACGGAGTCACCTAGTGCAG,8300 fluorescence intensity (a.u.)
21,CCTATGTTTTTCTTGCGGTCCAATCAAACGGCCATTCCTGCGGAGTCACCTAGTGCAG,9170 fluorescence intensity (a.u.)
